The shares of active, inactive and inconclusive entries below differ from those in the screen. Where the call is inconclusive, the potency comes from a doubtful curve fit. The source made the active and inactive calls. The calls were made as follows: active = hit-call score of the fitted dose curve at least 0.9, where 1 is the maximum; inconclusive = response in the unintended direction; inactive = score below 0.9.
Assays:
[1] = TOX21_p53_BLA_p3_viability: Viability Assessment in the Tox21 HCT-116 p53 Agonism Beta-lactamase Assay, Phase 3 (AID 2283593);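 also: cells exposed to compound for 16 h before reading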
Outline: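 HCT116 cells, 4000/well, dosed 5 h after plating by pin transfer (217-fold dilution from DMSO stock) and incubated 16 h at 37C, 5% CO2. Viability read as ATP luminescence with CellTiter-Glo after 30 min at room temperature.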

Amino acid sequences for entries named in this document (tags omitted).
UniProt P04637, whole entry, looked up: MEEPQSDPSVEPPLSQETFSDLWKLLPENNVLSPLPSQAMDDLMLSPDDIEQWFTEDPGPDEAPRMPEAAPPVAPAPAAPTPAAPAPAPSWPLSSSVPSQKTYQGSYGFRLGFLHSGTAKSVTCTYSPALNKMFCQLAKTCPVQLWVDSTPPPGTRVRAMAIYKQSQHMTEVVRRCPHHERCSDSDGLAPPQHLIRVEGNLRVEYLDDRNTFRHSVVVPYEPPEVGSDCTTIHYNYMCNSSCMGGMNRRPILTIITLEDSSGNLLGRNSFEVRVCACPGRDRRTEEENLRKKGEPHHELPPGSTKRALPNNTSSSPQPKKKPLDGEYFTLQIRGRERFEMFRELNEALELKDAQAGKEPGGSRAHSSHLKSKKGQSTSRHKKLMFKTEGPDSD

[2] = TOX21_p53_BLA_p4_viability: Viability Assessment in the Tox21 HCT-116 p53 Agonism Beta-lactamase Assay, Phase 4 (AID 2283597);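 also: hits lower the luminescence signal meaning cytotoxicity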
Outline: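 Compound exposure of HCT116 cells lasts 16 h at 37C, 5% CO2, with DMSO stocks diluted 217-fold. Cellular ATP is then quantified by CellTiter-Glo luminescence after 30 min at room temperature.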

[3] = molecular target: Cellular tumor antigen p53 (Homo sapiens) (UniProt P04637); assay: TOX21_p53_BLA_p3_ratio: Tox21 HCT-116 p53 Agonism Beta-lactamase Assay, Ratio, Phase 3 (AID 2283596)
Outline: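 HCT116 p53-bla cells (4000/well) given compound in DMSO (217-fold dilution) after 5 h, incubated 16 h at 37C. CCF4-AM substrate 2 h at room temperature; 460/530 nm emission ratio, gain fitted against DMSO.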

[4] = molecular target: Cellular tumor antigen p53 (Homo sapiens) (UniProt P04637); assay: TOX21_p53_BLA_p5_ratio: Tox21 HCT-116 p53 Agonism Beta-lactamase Assay, Ratio, Phase 5 (AID 2283599)
Outline: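 HCT-116 p53-bla cells (4000/well) plated 5 h, dosed with compound (217-fold DMSO dilution) for 16 h at 37 C; CCF4-AM substrate 2 h at room temperature. Activity is the 460/530 nm emission ratio (405 nm excitation), fitted in gain-of-signal direction versus DMSO.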

[5] = molecular target: Cellular tumor antigen p53 (Homo sapiens) (UniProt P04637); assay: TOX21_p53_BLA_p4_ratio: Tox21 HCT-116 p53 Agonism Beta-lactamase Assay, Ratio, Phase 4 (AID 2283601)
Outline: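 HCT-116 p53 beta-lactamase reporter cells (4000/well) preincubated 5 h, then compound (217-fold dilution of DMSO stock) for 16 h at 37C. CCF4-AM substrate added 2 h at room temperature; 460/530 nm emission ratio fitted upward versus DMSO.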

[6] = TOX21_p53_BLA_p5_viability: Viability Assessment in the Tox21 HCT-116 p53 Agonism Beta-lactamase Assay, Phase 5 (AID 2283600)
Outline: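 Counter-readout for cytotoxicity: ATP-dependent luminescence from CellTiter-Glo, read in the beta-lactamase wells after 30 min at RT, following a 16 h compound exposure at 37C.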

[7] = CCTE_Harrill_HTTr_CellCount_MCF7: CCTE's Cell Proliferation Assessment for the High-Throughput Transcriptomics (HTTr) Platform, Harrill Lab (AID 2284012);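 also: count of Hoechst-stained nuclei per well by high-content imaging in MCF-7 cells; cells exposed to compound for six hours; intended direction is loss of nuclei count meaning fewer cells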
Outline: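 Nuclei counting (Hoechst, high content imaging) in MCF-7 after a 6 h treatment at eight concentrations. Activity fitted bidirectionally, DMSO as negative control.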

Q: For `CC(C)[C@H](NC(=O)[C@H](CC(=O)O)NC(=O)[C@H](CCCCN)NC(=O)[C@@H](N)CCCN=C(N)N)C(=O)N[C@@H](Cc1ccc(O)cc1)C(=O)O`, which AC50 [1] is on record?
A: The AC50 was inconclusive: 23 µM.

Q: What about the AC50 [2] of the same compound?
A: The AC50 was inconclusive: 23 µM.

Q: What does the source list for `CC(O)c1ccccc1` (stereo not given)?
A: AC50 [1]: inconclusive: 46.8 µM; AC50 [3]: inconclusive: 46.8 µM; AC50 [4]: inconclusive: 83.3 µM; outcome [5]: inactive

Q: With `O=c1[nH]cnc2[nH]cc(CN3CCCCC3)c12` as the compound, how does the outcome [1] read?
A: The outcome was “inactive”.

Q: What about the AC50 [3] of the same compound?
A: The AC50 was inconclusive: 23 µM.

Q: What about the outcome [6] of the same compound?
A: Its outcome is “inactive”.

Q: What about the AC50 [5] of the same compound?
A: The AC50 was inconclusive: 23 µM.

Q: What does the source list for `CC[N+](C)(C)Cc1ccccc1Br`?
A: AC50 [1]: inconclusive: 10.3 µM; AC50 [2]: inconclusive: 0.000472 µM

Q: With `O=C1c2ccccc2CN2C(=O)c3ccccc3CN12` as the compound, how does the AC50 [1] read?
A: Its AC50 is inconclusive: 23 µM.

Q: And the AC50 [3]?
A: Its AC50 is inconclusive: 23 µM.

Q: And the AC50 [6]?
A: The AC50 was inconclusive: 23 µM.

Q: Which results are given for `C=CCn1cc[n+](C)c1`?
A: AC50 [1]: inconclusive: 61 µM; AC50 [2]: inconclusive: 46.6 µM

Q: With `CO[C@@H]1[C@H](OC(=O)/C=C/C=C/C=C/C=C/C(=O)O)CC[C@]2(CO2)[C@H]1[C@@]1(C)O[C@@H]1CC=C(C)C` as the compound, how does the outcome [1] read?
A: The outcome was “inactive”.

Q: And the outcome [3]?
A: Its outcome is “inactive”.

Q: What about the outcome [6] of the same compound?
A: Its outcome is “inactive”.

Q: What about the AC50 [7] of the same compound?
A: Its AC50 is inconclusive: 9.92 µM.

Q: Which outcome [1] does the source give for `Nc1cc(S(=O)(=O)O)ccc1S(=O)(=O)O` here?
A: The outcome was “inactive”.

Q: What about the AC50 [3] of the same compound?
A: The AC50 was inconclusive: 46.1 µM.

Q: What about the AC50 [5] of the same compound?
A: The AC50 was inconclusive: 46.1 µM.

Q: Which results are given for `O=C(O)C=CC(=O)Nc1ccc(S(=O)(=O)Nc2nccs2)cc1`?
A: outcome [1]: inactive; AC50 [3]: inconclusive: 23 µM; AC50 [4]: inconclusive: 23 µM; AC50 [6]: inconclusive: 23 µM; AC50 [5]: inconclusive: 40.3 µM

Q: For `O=c1[nH]c2cc(C(F)(F)F)c(N3CCOCC3)cc2n(CP(=O)(O)O)c1=O`, which AC50 [1] is on record?
A: The AC50 was inconclusive: 23 µM.

Q: What about the outcome [3] of the same compound?
A: The outcome was “inactive”.

Q: And the AC50 [4]?
A: Its AC50 is inconclusive: 23 µM.

Q: And the AC50 [6]?
A: The AC50 was inconclusive: 23 µM.

Q: With `O=C(O)c1cccc(Cl)c1Cl` as the compound, how does the AC50 [1] read?
A: The AC50 was inconclusive: 46.1 µM.

Q: And the AC50 [2]?
A: The AC50 was inconclusive: 46.1 µM.

Q: What does the source list for `CS(=O)(=O)Nc1ccc([N+](=O)[O-])cc1Oc1ccccc1`?
A: outcome [1]: inactive; AC50 [3]: inconclusive: 10.3 µM; AC50 [4]: inconclusive: 10.3 µM; AC50 [5]: inconclusive: 46.1 µM

Q: Which AC50 [1] does the source give for `N=C(N=C(N)N)N1CCOCC1` here?
A: The AC50 was inconclusive: 10.3 µM.

Q: What about the AC50 [2] of the same compound?
A: Its AC50 is inconclusive: 10.3 µM.

Q: What does the source list for `CCCCCCCCCCCCCCCC(=O)OCC(COC(=O)CCCCCCCCCCCCCCC)OC(=O)CCCCCCCCCCCCCCC`?
A: outcome [1]: inactive; AC50 [2]: inconclusive: 41.8 µM

Q: Which outcome [1] does the source give for `CN(C(=O)CCCOc1ccc2[nH]c(=O)ccc2c1)C1CCCCC1` here?
A: The outcome was “inactive”.

Q: And the outcome [3]?
A: The outcome was “inactive”.

Q: What about the AC50 [4] of the same compound?
A: Its AC50 is inconclusive: 23 µM.

Q: What about the outcome [6] of the same compound?
A: The outcome was “inactive”.

Q: What about the AC50 [5] of the same compound?
A: The AC50 was inconclusive: 21.3 µM.

Q: Which outcome [1] does the source give for `O=Cc1ccc([N+](=O)[O-])cc1` here?
A: Its outcome is “inactive”.

Q: What about the AC50 [3] of the same compound?
A: The AC50 was inconclusive: 46.3 µM.

Q: What about the AC50 [6] of the same compound?
A: Its AC50 is inconclusive: 46.3 µM.

Q: For `COc1cc(-c2ccc(N=C=O)c(OC)c2)ccc1N=C=O`, which AC50 [1] is on record?
A: Its AC50 is inconclusive: 22.9 µM.

Q: What about the AC50 [3] of the same compound?
A: Its AC50 is inconclusive: 22.9 µM.

Q: What about the AC50 [6] of the same compound?
A: The AC50 was inconclusive: 22.9 µM.

Q: For `CC(CNC1CCCCC1)OC(=O)c1ccccc1` (stereo not given), which outcome [1] is on record?
A: Its outcome is “inactive”.

Q: And the outcome [2]?
A: Its outcome is “inactive”.

Q: What about the outcome [4] of the same compound?
A: Its outcome is “inactive”.

Q: Which outcome [1] does the source give for `Cc1ccccc1OCC(O)CO` (stereo not given) here?
A: Its outcome is “inactive”.

Q: What about the AC50 [2] of the same compound?
A: The AC50 was inconclusive: 23 µM.

Q: And the AC50 [4]?
A: The AC50 was inconclusive: 23 µM.

Q: For `CCCOC(=O)C(C)O` (stereo not given), which AC50 [1] is on record?
A: The AC50 was inconclusive: 46.9 µM.

Q: And the outcome [2]?
A: Its outcome is “inactive”.

Q: For `CC(C)NC[C@@H](O)COc1ccc(CC(N)=O)cc1`, which AC50 [1] is on record?
A: The AC50 was inconclusive: 0.000409 µM.

Q: And the AC50 [2]?
A: Its AC50 is inconclusive: 23 µM.

Q: What about the AC50 [4] of the same compound?
A: Its AC50 is inconclusive: 23 µM.

Q: And the AC50 [6]?
A: Its AC50 is inconclusive: 23 µM.

Q: For `N=C(N)c1ccc2cc(OC(=O)c3ccc(N=C(N)N)cc3)ccc2c1`, which outcome [1] is on record?
A: The outcome was “inactive”.

Q: What about the AC50 [2] of the same compound?
A: The AC50 was inconclusive: 23 µM.

Q: And the AC50 [4]?
A: The AC50 was inconclusive: 23 µM.

Q: Which outcome [1] does the source give for `CCCCCCCCCCCBr` here?
A: The outcome was “inactive”.

Q: What about the outcome [2] of the same compound?
A: Its outcome is “inactive”.

Q: What about the outcome [4] of the same compound?
A: Its outcome is “inactive”.

Q: What about the AC50 [6] of the same compound?
A: The AC50 was inconclusive: 39.7 µM.

Q: Which outcome [1] does the source give for `C1CCN(CN2CCCCC2)CC1` here?
A: The outcome was “inactive”.

Q: And the AC50 [2]?
A: Its AC50 is inconclusive: 2.22 µM.

Q: What about the AC50 [4] of the same compound?
A: The AC50 was inconclusive: 46.1 µM.

Q: What about the AC50 [6] of the same compound?
A: The AC50 was inconclusive: 46.1 µM.

Q: For `CN(C)CCc1c[nH]c2ccc(Cn3cncn3)cc12`, which AC50 [1] is on record?
A: Its AC50 is inconclusive: 0.295 µM.

Q: What about the AC50 [2] of the same compound?
A: Its AC50 is inconclusive: 4.57 µM.

Q: What about the AC50 [4] of the same compound?
A: Its AC50 is inconclusive: 23 µM.

Q: And the AC50 [6]?
A: The AC50 was inconclusive: 23 µM.

Q: Which results are given for `Cc1cn([C@H]2C[C@H](F)[C@@H](CO)O2)c(=O)[nH]c1=O`?
A: AC50 [1]: inconclusive: 4.57 µM; AC50 [2]: inconclusive: 23 µM; AC50 [4]: inconclusive: 23 µM

Q: Which AC50 [1] does the source give for `CC1CCc2c(N3CCC(O)CC3)c(F)cc3c(=O)c(C(=O)O)cn1c23` (stereo not given) here?
A: Its AC50 is inconclusive: 23 µM.

Q: And the outcome [2]?
A: Its outcome is “inactive”.

Q: What about the AC50 [4] of the same compound?
A: The AC50 was inconclusive: 23 µM.

Q: For `O=C(O)c1ccc[n+]([O-])c1`, which AC50 [1] is on record?
A: Its AC50 is inconclusive: 23 µM.

Q: What about the AC50 [2] of the same compound?
A: The AC50 was inconclusive: 23 µM.

Q: And the AC50 [4]?
A: The AC50 was inconclusive: 23 µM.

From PubChem BioAssay (EPA / NIEHS)
